PMC12040169 (PLOS Biology, 2025)
This is one part of the list.

System: T1, CTL2-GFP (C. trachomatis L2/434/Bu, GFP-expressing)
T1 construct: L2/434/Bu, GFP-expressing
Design: species or system HeLa; Intracellular C. trachomatis growth in HeLa cells, bulk GFP fluorescence relative to DMSO
Settings: bulk GFP, single well; 28.5 h, 10 µM; inhibitor

| Structure (SMILES) | % of control remaining [%] |
| --- | --- |
| Cc1cc(C)nc(SCC(=O)N/N=C2/C(=O)Nc3ccccc32)n1 [CBK262883] | 80.1188 |
| Cc1cc(C(=O)Cn2nc(C(=O)O)c3ccccc3c2=O)c(C)n1Cc1ccccc1Cl [CBK297504] | 99.7182 |
| N#Cc1c(C(F)(F)F)cc(-c2ccncc2)nc1SCCN1CCCCCC1 [CBK267451] | 140.811 |
| COc1cc(CNc2nc(Br)cn3ccnc23)cc(OC)c1OC [CBK038060] | 143.558 |
| N#Cc1ccc(-c2cnc(NC(=O)C(F)(F)F)c(-c3ccc(C(=O)N4CCOCC4)cc3)n2)cc1 [CBK093819] | 124.931 |
| Cc1cc(C)c2c(CC(=O)NNC(=O)COc3ccccc3)coc2c1 [CBK269169] | 159.89 |
| Cc1ccc(OC2(C(=O)N3CCCC3c3nccs3)CCNCC2)cc1 (centres unmarked) [CBK307539] | 122.927 |
| CN1CCCc2ccc(S(=O)(=O)NCCc3cn4ccccc4n3)cc21 [CBK306170] | 159.613 |
| CNC(=O)CCCc1[nH]nc(O)c1Cc1c(Cl)cccc1Cl [CBK085827] | 88.297 |
| CCCCc1ccc(-c2cnc3nc(O)ccc3c2)cc1 [CBK081296] | 107.975 |
| CC(Cc1cccs1)NC(=O)c1cccc(-n2cnnc2)c1 (centres unmarked) [CBK282443] | 133.536 |
| Cc1ccc(NC(=O)COc2cccnc2)c(C)n1 [CBK200379] | 140.721 |
| CCOC(=O)CN1CCC(Oc2cncc(OCC3COc4ccccc4O3)n2)C1 (centres unmarked) [CBK084375] | 118.185 |
| Cc1nnc(SCC(=O)N2CCN(Cc3ccccc3)CC2)s1 [CBK267196] | 165.48 |
| Cc1cc(-c2nccnc2NCc2ccccn2)cc(C)c1O [CBK036921] | 204.51 |
| CCC(CC)C(=O)N(C)c1c(C)nc2ccc(C(=O)NCc3ccc(OC)cc3)cn12 [CBK146501] | 157.011 |
| CS(=O)(=O)CCNC(=O)c1cnc(-c2ccc(F)cc2)c(-c2ccco2)c1 [CBK037505] | 161.989 |
| Cn1ccnc1C1(O)CC2CCC(C1)N2C(=O)c1ccco1 (centres unmarked) [CBK284179] | 119.815 |
| CC(CN(C)C(=O)Cn1cccc(C(=O)NC2CCCCC2)c1=O)c1ccccc1 (centres unmarked) [CBK286066] | 114.825 |
| C=C(C)CNC(=O)c1cc(-c2ccc(OC)cc2)cnc1NCC1CC1 [CBK076339] | 97.2198 |
| Cc1ccc(S(=O)(=O)Nc2cc(SCC(=O)O)c(O)c3ccccc23)cc1 [CBK265708] | 46.501 |
| COc1ccc(C2N(CCC(=O)O)CCOC23CCN(C(=O)c2ccc4ccccc4c2)CC3)cc1 (centres unmarked) [CBK115960] | 110.329 |
| Cc1ccc(NC(=O)c2cnc(SCc3ccccn3)n(C)c2=O)cc1 [CBK287673] | 98.5969 |
| Cc1ccc(C(=O)C(OC(=O)COc2ccccc2C)c2ccccc2)cc1C (centres unmarked) [CBK265512] | 100 |
| Cc1nn(Cc2c(F)cccc2Cl)c(C)c1NC(=S)Nc1ccc(S(N)(=O)=O)cc1 [CBK267121] | 91.6749 |
| O=C(NNS(=O)(=O)c1ccc([N+](=O)[O-])cc1)Nc1cccc(C(F)(F)F)c1 [CBK266871] | 149.025 |

5 entries from above, with tabs:
Structure (SMILES)	% of control remaining [%]
Cc1ccc(OC2(C(=O)N3CCCC3c3nccs3)CCNCC2)cc1 (centres unmarked) [CBK307539]	122.927
CN1CCCc2ccc(S(=O)(=O)NCCc3cn4ccccc4n3)cc21 [CBK306170]	159.613
CNC(=O)CCCc1[nH]nc(O)c1Cc1c(Cl)cccc1Cl [CBK085827]	88.297
Cc1nnc(SCC(=O)N2CCN(Cc3ccccc3)CC2)s1 [CBK267196]	165.48
Cn1ccnc1C1(O)CC2CCC(C1)N2C(=O)c1ccco1 (centres unmarked) [CBK284179]	119.815

Continued:

| Structure (SMILES) | % of control remaining [%] |
| --- | --- |
| C=Cn1cc(CN2CCCC(O)(c3ccc(F)cc3)CC2)c(C)n1 (centres unmarked) [CBK285398] | 109.742 |
| COc1ccc2cc(C(=O)N3Cc4cnn(CCO)c4C3)n(C)c2c1 [CBK306707] | 97.065 |
| Cc1cccc(C)c1NC(=O)CN1CCC(Oc2cncc(OCC3COc4ccccc4O3)n2)C1 (centres unmarked) [CBK084373] | 80.325 |
| CCCNC(=O)NC1CC(C)(C)Cc2nc(N3CCOCC3)ncc21 (centres unmarked) [CBK307232] | 131.225 |
| C(#Cc1cccc(-c2nc3ccccc3nc2-c2cccc(C#Cc3ccc(Sc4ccccc4)cc3)c2)c1)c1ccc(Sc2ccccc2)cc1 [CBK261158] | 110.661 |
| O=C(OCCc1ccncc1)N1CCC(F)(F)CC1 [CBK200158] | 96.5294 |
| O=C(CCC1CCCC1)n1ccn(C(c2ccccc2)c2ccccc2)c1=O [CBK106619] | 143.985 |
| Nc1ccc(-c2cn3ccnc3c(Nc3ccc(Cl)cc3)n2)cc1 [CBK066453] | 208.082 |
| Cc1nn(C)cc1C(C)NC(=O)c1ccc(CN(C)C)o1 (centres unmarked) [CBK282083] | 106.282 |
| O=C(O)c1ccc(N2C(=O)CC(N3CCN(Cc4ccc5c(c4)OCO5)CC3)C2=O)cc1 (centres unmarked) [CBK074573] | 104.143 |
| CN1CCCC(NC(=O)C2CCN(Cc3ccc(F)cc3)CC2)C1 (centres unmarked) [CBK282516] | 102.454 |
| O=C(c1ccno1)N1C[C@@H]2OCC(=O)N(CC3CC3)[C@@H]2C1 [CBK289680] | 141.208 |
| Cc1cc(C(=O)CSc2nnc(CN3CCCC3)o2)c(C)n1C1CC1 [CBK306199] | 160.805 |
| CC(C)c1ccc(CN2CCC3(CC2)CN(CCO)c2ccccc23)cc1 [CBK122708] | 123.622 |
| Cc1cc(C)cc(Cn2cc(NCc3ccccc3)c(=O)[nH]c2=O)c1 [CBK288009] | 118.025 |
| O=C(NCCNc1cnccn1)c1cc(F)cc(Br)c1 [CBK304554] | 101.997 |
| Cc1ccc(NC(=O)N(Cc2ccc(-c3ccccc3)cc2)CC(C)(C)CN)cc1[N+](=O)[O-] [CBK002439C] | 53.1183 |
| COc1ccc(OC)c(S(=O)(=O)N2CCN(c3ncccn3)CC2)c1 [CBK008662] | 129.661 |
| Cc1cc(C(=O)O)c(C)cc1N [CBK022781] | 102.351 |
| CCC(CC)C(=O)N1C[C@H]2CCc3nnc(-c4ccccc4)n3[C@H]2C1 [CBK283439] | 182.509 |
| CC(=O)Nc1ccc(S(=O)(=O)Nc2nnc(CC(C)(C)C)s2)cc1 [CBK049910] | 135.181 |
| COc1ccc(-c2cc3n[nH]c(=O)n3c(C)n2)cc1 [CBK288439] | 148.647 |
| CCCc1n[nH]c(O)c1Cc1ccc(OCCCN(C)C)cc1 [CBK116249A] | 112.885 |
| Cc1cc(=O)oc2cc(NC(=S)NNC(=O)C(C)Sc3nc4ccccc4s3)ccc12 (centres unmarked) [CBK267056] | 145.188 |
| Cc1cccc(CC(=O)N2CCC(Cc3ccccc3-c3ccccc3C)(C(N)=O)CC2)c1 [CBK285728] | 112.375 |
| CCOC(=O)N1CCC(NS(=O)(=O)c2ccc(Cl)c(Cl)c2Cl)CC1 [CBK045471] | 154.517 |

Some of these compounds in order of formula weight, low to high.

| Structure (SMILES) | % of control remaining [%] |
| --- | --- |
| C=Cn1cc(CN2CCCC(O)(c3ccc(F)cc3)CC2)c(C)n1 (centres unmarked) [CBK285398] | 109.742 |
| Cc1cc(C)cc(Cn2cc(NCc3ccccc3)c(=O)[nH]c2=O)c1 [CBK288009] | 118.025 |
| Cc1ccc(NC(=O)N(Cc2ccc(-c3ccccc3)cc2)CC(C)(C)CN)cc1[N+](=O)[O-] [CBK002439C] | 53.1183 |

The list continues.

| Structure (SMILES) | % of control remaining [%] |
| --- | --- |
| COC(=O)c1sc2cc(C(F)(F)F)cnc2c1-c1ccccn1 [CBK089888] | 108.772 |
| CCOC(=O)CCCCCCC(=O)N1CCN(c2ccc(C(F)(F)F)cc2)CC1 [CBK091327] | 122.641 |
| O=C(COc1cccc2ccccc12)Nc1ccc(O)cc1 [CBK266002] | 114.853 |
| COc1ccccc1C(=O)CN1CCC2(CC1)OCCc1c2[nH]c2ccc(F)cc12 [CBK040238] | 177.678 |
| O=C(Nc1ccc(SC(F)F)cc1)c1cc(-c2ccncc2)nc2ccccc12 [CBK296092] | 162.369 |
| Cc1nc(NS(=O)(=O)c2cccc(Cl)c2C)sc1C(=O)O [CBK045561] | 81.874 |
| Cc1c(Cl)c([N+](=O)[O-])nn1CC(=O)N1CCN(C)CC1 [CBK261719] | 104.691 |
| O=C(Nc1cc(N2CCNCC2)ncn1)c1ccccc1 [CBK004215T] | 150.693 |
| Cc1ccc(-c2nn3c(C)nnc3c3ccccc23)cc1S(N)(=O)=O [CBK268342] | 127.924 |
| O=C(Cc1ccc(Br)cc1)Nc1cc(C(=O)O)cc(C(=O)O)c1 [CBK268228] | 159.571 |
| CCOC(=O)c1c(NC(=O)Cc2ccccc2)sc2c1CCC2 [CBK262309] | 115.871 |
| Cc1ccc(-n2ncc3c(=O)n(CC(=O)Nc4ccccc4)cnc32)cc1C [CBK287539] | 133.294 |
| CN1CCN(c2ccccc2NC(=O)c2ccc3c(c2)OCCO3)CC1 [CBK268072] | 120.739 |
| O=C(C1CC2C=CC1C21CC1)N1CCN(Cc2ccccn2)CC1 (centres unmarked) [CBK281443] | 128.813 |
| O=C(c1cnc(-c2ccccc2)c(-c2cccnc2)c1)N1CCC(S(=O)(=O)c2ccccc2)C1 (centres unmarked) [CBK036685] | 139.95 |
| Cc1nc(C)c(-c2csc(CC(C)n3cc(Cl)cn3)n2)o1 (centres unmarked) [CBK304710] | 128.011 |
| O=C(O)CCn1c(SCCc2ccccc2)nc2ccccc21 [CBK262384] | 94.059 |
| CN1C[C@@H](NC(=O)c2ccc3c(c2)OCO3)C[C@H]1c1nc(-c2ccccc2)no1 [CBK288876] | 117.071 |
| O=C(N/N=C/c1ccc(C(=O)O)cc1)C(=O)Nc1cccc(Br)c1 [CBK262185] | 100 |
| C#CCNC(=O)CC[C@H]1CNC(=O)[C@@H]2[C@@H](CCN2Cc2nc3ccccc3n2C)N1C [CBK289018] | 134.372 |
| COc1ccc(OC)c(C(=O)c2coc3ccc(OCC(=O)O)cc23)c1 [CBK111288] | 104.057 |
| c1ccc2c(c1)CCC2Oc1cncc(N2CCNCC2)n1 (centres unmarked) [CBK200005G] | 102.578 |
| FC(F)(F)c1cnc(Sc2c[nH]nn2)c(Cl)c1 [CBK007252] | 127.191 |
| CC(=O)N1C[C@@H](c2cccc(C)c2)[C@@H]2CN(Cc3ccncc3)CC[C@@H]21 [CBK283370] | 113.023 |
| O=C(c1ccc(OC(F)(F)F)cc1)N1CCC2(CCN(Cc3ccccc3)CC2)C1 [CBK136746] | 123.746 |
